Data from the supplement of paper PMC12823440, “Inhibitors supercharge kinase turnover through native proteolytic circuits” (Nature, 2025).
Counter-ions that a name gives are not always drawn. The list shows a part of the results. Hit calls seldom repeat between salt and free forms of one compound.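 Kinases were expressed as nanoluciferase fusions in K562 cells and luminescence was read every 4 h between 2 and 18 h as percent of control, DMSO set to 100% and a positive control to 0%. A time point counts as decreased when the signal drops significantly (2 sigma). The hit call is the authors' own, does not follow from the count of time points alone, and its rule is not shown.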

Chains of the proteins cited; added tags and fusions are not shown. Lines headed by an entry give the natural chain unless they say otherwise; changes in a name come on top.
UniProt P48729: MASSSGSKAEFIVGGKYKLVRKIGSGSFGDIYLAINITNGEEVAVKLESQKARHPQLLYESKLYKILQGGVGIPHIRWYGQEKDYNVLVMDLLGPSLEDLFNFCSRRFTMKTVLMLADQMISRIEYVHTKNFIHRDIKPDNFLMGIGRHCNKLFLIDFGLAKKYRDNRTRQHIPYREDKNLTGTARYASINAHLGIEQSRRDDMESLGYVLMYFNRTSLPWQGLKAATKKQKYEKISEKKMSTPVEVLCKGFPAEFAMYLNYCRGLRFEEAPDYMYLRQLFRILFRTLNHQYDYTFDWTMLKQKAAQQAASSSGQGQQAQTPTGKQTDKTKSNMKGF
UniProt P48730: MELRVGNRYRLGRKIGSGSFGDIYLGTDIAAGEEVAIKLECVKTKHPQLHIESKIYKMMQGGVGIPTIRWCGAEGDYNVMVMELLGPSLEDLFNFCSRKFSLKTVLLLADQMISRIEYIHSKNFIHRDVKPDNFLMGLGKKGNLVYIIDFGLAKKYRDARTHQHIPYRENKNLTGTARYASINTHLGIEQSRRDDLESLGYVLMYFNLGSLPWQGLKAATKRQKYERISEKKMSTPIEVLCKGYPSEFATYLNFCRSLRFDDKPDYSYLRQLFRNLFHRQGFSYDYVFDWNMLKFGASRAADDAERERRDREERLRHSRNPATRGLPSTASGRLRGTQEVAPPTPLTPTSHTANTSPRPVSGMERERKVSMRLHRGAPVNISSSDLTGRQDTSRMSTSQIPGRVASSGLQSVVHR
UniProt Q92630: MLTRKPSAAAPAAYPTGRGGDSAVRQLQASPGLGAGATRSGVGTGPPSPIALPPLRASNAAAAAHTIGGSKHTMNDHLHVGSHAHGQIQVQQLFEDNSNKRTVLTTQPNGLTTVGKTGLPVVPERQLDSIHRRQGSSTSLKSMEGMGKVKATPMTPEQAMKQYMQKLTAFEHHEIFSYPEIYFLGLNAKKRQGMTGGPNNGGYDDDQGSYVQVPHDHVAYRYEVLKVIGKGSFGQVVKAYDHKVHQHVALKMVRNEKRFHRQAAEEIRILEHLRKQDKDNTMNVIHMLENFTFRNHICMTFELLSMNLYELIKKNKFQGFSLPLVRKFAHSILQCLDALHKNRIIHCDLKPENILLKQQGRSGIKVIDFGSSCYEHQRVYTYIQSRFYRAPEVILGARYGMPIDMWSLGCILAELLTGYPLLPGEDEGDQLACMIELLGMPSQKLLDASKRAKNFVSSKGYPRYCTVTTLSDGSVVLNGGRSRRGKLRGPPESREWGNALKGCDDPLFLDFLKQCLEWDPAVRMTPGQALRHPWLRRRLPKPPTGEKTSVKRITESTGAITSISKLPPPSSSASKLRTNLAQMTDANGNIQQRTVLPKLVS
UniProt P29317, whole entry: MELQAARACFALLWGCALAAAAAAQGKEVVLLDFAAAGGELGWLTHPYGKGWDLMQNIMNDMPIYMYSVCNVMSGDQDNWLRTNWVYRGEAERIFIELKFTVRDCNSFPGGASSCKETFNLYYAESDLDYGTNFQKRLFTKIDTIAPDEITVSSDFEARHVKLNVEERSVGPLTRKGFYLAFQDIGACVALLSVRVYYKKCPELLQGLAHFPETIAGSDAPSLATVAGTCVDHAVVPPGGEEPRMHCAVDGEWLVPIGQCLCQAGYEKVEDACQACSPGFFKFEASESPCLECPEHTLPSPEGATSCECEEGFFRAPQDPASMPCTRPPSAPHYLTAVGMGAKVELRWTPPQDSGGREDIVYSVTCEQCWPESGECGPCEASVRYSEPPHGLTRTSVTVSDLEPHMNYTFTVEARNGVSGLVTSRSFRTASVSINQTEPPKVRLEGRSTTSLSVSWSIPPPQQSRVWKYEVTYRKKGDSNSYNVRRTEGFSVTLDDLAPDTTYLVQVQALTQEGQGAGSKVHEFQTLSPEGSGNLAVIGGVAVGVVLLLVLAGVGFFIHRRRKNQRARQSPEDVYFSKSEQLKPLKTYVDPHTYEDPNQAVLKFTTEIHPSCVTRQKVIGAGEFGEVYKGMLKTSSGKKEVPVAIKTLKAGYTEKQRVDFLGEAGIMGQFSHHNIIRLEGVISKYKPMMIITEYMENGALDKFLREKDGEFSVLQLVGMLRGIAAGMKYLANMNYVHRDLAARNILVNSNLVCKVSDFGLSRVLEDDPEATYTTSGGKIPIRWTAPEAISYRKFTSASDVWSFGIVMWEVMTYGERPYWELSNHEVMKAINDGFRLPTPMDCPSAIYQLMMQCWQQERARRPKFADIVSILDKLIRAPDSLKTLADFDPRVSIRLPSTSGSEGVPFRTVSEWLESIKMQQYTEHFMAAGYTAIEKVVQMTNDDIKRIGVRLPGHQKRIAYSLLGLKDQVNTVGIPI
UniProt P21860, whole entry: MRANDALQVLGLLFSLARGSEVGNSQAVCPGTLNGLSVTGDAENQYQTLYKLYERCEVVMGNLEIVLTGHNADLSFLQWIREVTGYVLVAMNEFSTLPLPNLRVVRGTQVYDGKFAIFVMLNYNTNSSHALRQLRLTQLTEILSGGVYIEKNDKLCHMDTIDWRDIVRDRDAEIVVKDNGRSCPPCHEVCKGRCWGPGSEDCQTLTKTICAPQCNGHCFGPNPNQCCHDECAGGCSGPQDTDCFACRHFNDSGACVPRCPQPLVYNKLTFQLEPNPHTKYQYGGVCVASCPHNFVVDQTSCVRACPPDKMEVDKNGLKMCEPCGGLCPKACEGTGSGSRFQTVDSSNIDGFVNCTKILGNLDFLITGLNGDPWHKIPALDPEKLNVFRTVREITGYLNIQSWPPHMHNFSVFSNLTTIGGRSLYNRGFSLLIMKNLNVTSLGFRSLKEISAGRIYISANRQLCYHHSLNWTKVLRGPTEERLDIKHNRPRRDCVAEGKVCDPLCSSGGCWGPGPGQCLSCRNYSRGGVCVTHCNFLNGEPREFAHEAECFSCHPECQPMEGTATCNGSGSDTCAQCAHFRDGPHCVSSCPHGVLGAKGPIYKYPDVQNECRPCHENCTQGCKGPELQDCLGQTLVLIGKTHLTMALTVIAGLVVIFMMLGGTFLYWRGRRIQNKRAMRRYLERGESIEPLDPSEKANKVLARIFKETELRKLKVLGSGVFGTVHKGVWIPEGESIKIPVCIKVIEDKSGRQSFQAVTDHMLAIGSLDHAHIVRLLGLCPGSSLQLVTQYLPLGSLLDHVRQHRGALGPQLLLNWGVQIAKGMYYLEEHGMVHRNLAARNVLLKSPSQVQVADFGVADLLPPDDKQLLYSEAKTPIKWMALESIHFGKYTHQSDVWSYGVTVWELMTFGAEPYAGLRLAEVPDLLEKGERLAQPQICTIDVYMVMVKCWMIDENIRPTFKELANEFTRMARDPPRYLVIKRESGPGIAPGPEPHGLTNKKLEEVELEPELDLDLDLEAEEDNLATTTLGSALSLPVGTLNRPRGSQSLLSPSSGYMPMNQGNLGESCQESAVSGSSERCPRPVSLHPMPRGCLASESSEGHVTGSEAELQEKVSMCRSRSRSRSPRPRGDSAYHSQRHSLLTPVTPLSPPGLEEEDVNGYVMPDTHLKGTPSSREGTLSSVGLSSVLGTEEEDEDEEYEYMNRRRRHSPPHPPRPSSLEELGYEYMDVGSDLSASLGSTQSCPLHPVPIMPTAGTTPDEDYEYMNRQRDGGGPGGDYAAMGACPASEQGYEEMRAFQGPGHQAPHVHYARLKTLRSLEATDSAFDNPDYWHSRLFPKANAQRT
UniProt O75460: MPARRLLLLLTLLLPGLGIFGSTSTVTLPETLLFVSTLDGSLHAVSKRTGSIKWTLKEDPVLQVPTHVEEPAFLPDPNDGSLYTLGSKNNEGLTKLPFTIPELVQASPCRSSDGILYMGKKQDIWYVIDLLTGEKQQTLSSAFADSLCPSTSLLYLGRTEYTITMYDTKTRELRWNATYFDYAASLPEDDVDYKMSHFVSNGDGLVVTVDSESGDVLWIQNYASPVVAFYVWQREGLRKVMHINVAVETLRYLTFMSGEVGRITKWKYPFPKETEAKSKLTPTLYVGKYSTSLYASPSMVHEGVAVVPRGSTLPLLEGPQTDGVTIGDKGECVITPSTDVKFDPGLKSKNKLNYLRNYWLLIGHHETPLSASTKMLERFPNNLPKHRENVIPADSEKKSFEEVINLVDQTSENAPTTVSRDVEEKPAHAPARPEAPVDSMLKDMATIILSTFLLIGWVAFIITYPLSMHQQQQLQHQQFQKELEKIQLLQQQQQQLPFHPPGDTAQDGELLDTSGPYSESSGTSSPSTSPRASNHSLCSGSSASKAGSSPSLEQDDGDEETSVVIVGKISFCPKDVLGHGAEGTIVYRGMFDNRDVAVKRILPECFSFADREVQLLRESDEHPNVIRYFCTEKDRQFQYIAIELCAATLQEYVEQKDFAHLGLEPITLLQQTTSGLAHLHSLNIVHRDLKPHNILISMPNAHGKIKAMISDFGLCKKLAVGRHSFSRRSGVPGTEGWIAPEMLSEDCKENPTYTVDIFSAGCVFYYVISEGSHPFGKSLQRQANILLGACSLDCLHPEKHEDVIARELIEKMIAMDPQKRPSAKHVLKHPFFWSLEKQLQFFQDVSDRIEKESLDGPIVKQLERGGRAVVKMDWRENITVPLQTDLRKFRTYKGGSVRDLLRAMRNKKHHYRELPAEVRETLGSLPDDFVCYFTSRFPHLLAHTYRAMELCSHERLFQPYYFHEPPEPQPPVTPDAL
UniProt P11362, whole entry, looked up: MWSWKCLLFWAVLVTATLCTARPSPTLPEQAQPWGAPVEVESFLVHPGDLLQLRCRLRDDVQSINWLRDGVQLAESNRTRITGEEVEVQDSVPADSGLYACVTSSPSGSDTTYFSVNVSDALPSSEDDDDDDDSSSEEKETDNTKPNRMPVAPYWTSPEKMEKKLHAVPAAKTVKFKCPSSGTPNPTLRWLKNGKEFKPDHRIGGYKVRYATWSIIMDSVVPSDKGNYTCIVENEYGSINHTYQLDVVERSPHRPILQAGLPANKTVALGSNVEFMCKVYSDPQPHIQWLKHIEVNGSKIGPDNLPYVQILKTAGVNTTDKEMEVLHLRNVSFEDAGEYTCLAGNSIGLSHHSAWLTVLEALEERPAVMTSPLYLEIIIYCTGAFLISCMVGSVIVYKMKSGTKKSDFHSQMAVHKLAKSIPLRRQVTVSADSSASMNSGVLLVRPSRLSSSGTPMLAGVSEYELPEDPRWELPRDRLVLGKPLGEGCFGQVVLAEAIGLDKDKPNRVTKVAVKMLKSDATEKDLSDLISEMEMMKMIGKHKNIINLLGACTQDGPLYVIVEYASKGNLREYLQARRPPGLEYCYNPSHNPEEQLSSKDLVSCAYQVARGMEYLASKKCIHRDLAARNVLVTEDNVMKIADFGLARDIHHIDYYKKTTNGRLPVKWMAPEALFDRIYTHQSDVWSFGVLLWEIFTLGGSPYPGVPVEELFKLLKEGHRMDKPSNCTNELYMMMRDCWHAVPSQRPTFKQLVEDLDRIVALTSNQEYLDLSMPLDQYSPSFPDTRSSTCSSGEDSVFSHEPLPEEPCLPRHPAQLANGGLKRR
UniProt P22607, whole entry, looked up: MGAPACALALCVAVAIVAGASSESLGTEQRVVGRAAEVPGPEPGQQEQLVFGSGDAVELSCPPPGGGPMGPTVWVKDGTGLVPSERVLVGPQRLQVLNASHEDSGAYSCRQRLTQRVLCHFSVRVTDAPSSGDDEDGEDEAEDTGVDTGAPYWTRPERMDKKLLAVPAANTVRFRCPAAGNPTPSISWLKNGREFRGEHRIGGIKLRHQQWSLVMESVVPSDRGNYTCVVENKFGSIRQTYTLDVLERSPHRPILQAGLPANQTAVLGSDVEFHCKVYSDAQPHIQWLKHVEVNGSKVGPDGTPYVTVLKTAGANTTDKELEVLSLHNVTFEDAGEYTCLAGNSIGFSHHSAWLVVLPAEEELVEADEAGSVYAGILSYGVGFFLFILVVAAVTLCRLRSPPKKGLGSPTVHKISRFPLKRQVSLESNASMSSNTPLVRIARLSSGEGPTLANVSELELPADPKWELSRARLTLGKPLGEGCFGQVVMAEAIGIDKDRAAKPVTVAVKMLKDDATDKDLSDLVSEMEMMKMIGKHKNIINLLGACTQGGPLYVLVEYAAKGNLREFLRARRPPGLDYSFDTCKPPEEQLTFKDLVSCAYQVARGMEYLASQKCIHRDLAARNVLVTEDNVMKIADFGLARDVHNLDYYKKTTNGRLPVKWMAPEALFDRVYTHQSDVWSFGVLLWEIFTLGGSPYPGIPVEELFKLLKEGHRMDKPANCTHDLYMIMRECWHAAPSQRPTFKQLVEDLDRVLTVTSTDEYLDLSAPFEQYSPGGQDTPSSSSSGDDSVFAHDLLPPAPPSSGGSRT

Key:
Assay in all cases: number of time points (of 5) at which kinase-Nluc abundance scored as decreased, DMSO-normalised (count); higher = more persistent destabilization
Settings in all cases: K562; 2-18 h
CSNK1A1 = CSNK1A1 (UniProt P48729)
CSNK1D = CSNK1D (UniProt P48730)
DDR1 = DDR1 (UniProt Q08345)
DYRK1B = DYRK1B (UniProt Q9Y463)
DYRK2 = DYRK2 (UniProt Q92630)
EGFR = EGFR (UniProt P00533)
EGFR_G719S = EGFR_G719S (UniProt P00533)
EGFR_G719S_T790M = EGFR_G719S_T790M (UniProt P00533)
EGFR_L718V = EGFR_L718V (UniProt P00533)
EGFR_L858R = EGFR_L858R (UniProt P00533)
EGFR_L861Q = EGFR_L861Q (UniProt P00533)
EGFR_T790M = EGFR_T790M (UniProt P00533)
EPHA2 = EPHA2 (UniProt P29317)
ERBB3 = ERBB3 (UniProt P21860)
[1] = target: ERBB4_R711C (clone: ERBB4_mut) (UniProt Q15303)
ERN1 = ERN1 (UniProt O75460)
FGFR1 = FGFR1 (UniProt P11362)
FGFR2 = FGFR2 (UniProt P21802)
FGFR3 = FGFR3 (UniProt P22607)
FGR = FGR (UniProt P09769)

| Compound | number of time points (CSNK1A1) | number of time points (CSNK1D) | number of time points (DDR1) | number of time points (DYRK1B) | number of time points (DYRK2) | number of time points (EGFR) | number of time points (EGFR_G719S) | number of time points (EGFR_G719S_T790M) | number of time points (EGFR_L718V) | number of time points (EGFR_L858R) | number of time points (EGFR_L861Q) | number of time points (EGFR_T790M) | number of time points (EPHA2) | number of time points (ERBB3) | number of time points [1] | number of time points (ERN1) | number of time points (FGFR1) | number of time points (FGFR2) | number of time points (FGFR3) | number of time points (FGR) |
| --- | --- | --- | --- | --- | --- | --- | --- | --- | --- | --- | --- | --- | --- | --- | --- | --- | --- | --- | --- | --- |
| Nc1nc(Nc2ccc3c(c2)CC[C@@H](N2CCCC2)CC3)nn1-c1cc2c(nn1)-c1ccccc1CCC2 [Bemcentinib] (2.5 µM) | 0 | 0 | 0 | 0 | 0 | 0 | 0 | 0 | 0 | 0 | 0 | 0 | 0 | 0 | 0 | 0 | 0 | 0 | 0 | 0 |
| Cc1nc(NC(=O)N2CCC[C@H]2C(N)=O)sc1-c1ccnc(C(C)(C)C(F)(F)F)c1 [Alpelisib] (2.5 µM) | 0 | 0 | 0 | 0 | 0 | 0 | 0 | 0 | 0 | 0 | 0 | 0 | 0 | 0 | 0 | 0 | 0 | 0 | 0 | 0 |
| CC(C)(Oc1ccc(Cl)cc1)C(=O)Nc1ccc(OCc2ccc(C#N)cc2)cc1 [AMPK activator 4] (10 µM) | 0 | 0 | 0 | 0 | 0 | 0 | 0 | 0 | 0 | 0 | 0 | 0 | 0 | 0 | 0 | 0 | 0 | 0 | 0 | 0 |
| Cc1ccc(Nc2cc(N[C@@H]3CCCC[C@@H]3N)nnc2C(N)=O)nc1C (2 µM) | 0 | 0 | 0 | 0 | 0 | 0 | 0 | 0 | 0 | 0 | 0 | 0 | 0 | 0 | 0 | 0 | 0 | 0 | 0 | 0 |
| CCCCC(=O)OCC(=O)[C@]1(O)Cc2c(O)c3c(c(O)c2[C@@H](O[C@H]2C[C@H](NC(=O)C(F)(F)F)[C@H](O)[C@H](C)O2)C1)C(=O)c1c(OC)cccc1C3=O [Valrubicin] (10 µM) | 0 | 0 | 0 | 0 | 1 | 0 | 0 | 0 | 0 | 0 | 0 | 0 | 0 | 0 | 0 | 0 | 0 | 1 | 0 | 0 |
| CCOC(=O)c1c(C)[nH]c(C=C2C(=O)Nc3ccccc32)c1C (10 µM) | 0 | 0 | 0 | 0 | 0 | 0 | 0 | 0 | 0 | 0 | 0 | 0 | 0 | 0 | 0 | 0 | 0 | 0 | 0 | 0 |
| O=C(NCc1ccn[nH]1)c1cc([C@@H]2CCNC[C@H]2COc2ccc3c(c2)OCO3)ccc1F [GRK2-IN-1 (hydrochloride)] (10 µM) | 0 | 0 | 0 | 0 | 0 | 0 | 0 | 0 | 0 | 0 | 0 | 0 | 0 | 0 | 0 | 0 | 0 | 0 | 0 | 0 |
| CCCCNc1ncc2c(-c3ccc(F)cc3)nn(CC3CCC(N)CC3)c2n1 (stereo not given) (2.5 µM) | 0 | 0 | 0 | 0 | 4 | 0 | 0 | 0 | 0 | 0 | 0 | 0 | 0 | 0 | 0 | 0 | 0 | 0 | 0 | 0 |
| CC(=O)O[C@@H]1[C@@H](OC(C)=O)[C@@H](O)[C@H](Oc2c(-c3ccc(O)cc3)oc3cc(O)cc(O)c3c2=O)O[C@H]1C (10 µM) | 0 | 0 | 0 | 0 | 0 | 0 | 0 | 0 | 0 | 0 | 0 | 0 | 0 | 0 | 0 | 0 | 0 | 0 | 0 | 0 |
| Cc1cccc(CC(=O)N2CCc3c2ccc(-c2cn(C)c4ncnc(N)c24)c3F)n1 (10 µM) | 0 | 0 | 0 | 0 | 0 | 0 | 0 | 0 | 0 | 0 | 0 | 0 | 0 | 0 | 0 | 0 | 0 | 0 | 0 | 0 |
| C=CC(=O)Nc1cc(Nc2nccc(-c3cn(C)c4ccccc34)n2)c(OCC(F)(F)F)nc1N(C)CCNC [AST5902  (trimesylate)] (2.5 µM) | 0 | 0 | 3 | 0 | 0 | 0 | 0 | 0 | 0 | 0 | 0 | 0 | 0 | 0 | 0 | 0 | 0 | 0 | 4 | 0 |
| CC(C)(CCCCCC(O)CCCCCC(C)(C)C(=O)O)C(=O)O [Bempedoic acid] (10 µM) | 0 | 0 | 0 | 0 | 0 | 0 | 0 | 0 | 0 | 0 | 0 | 0 | 0 | 0 | 0 | 0 | 0 | 0 | 0 | 0 |
| CO[C@]1(C(=O)N[C@@H](C)c2ccc(-n3cc(F)cn3)nc2)CC[C@H](c2nc(C)cc(Nc3cc(C)[nH]n3)n2)CC1 [Pralsetinib] (10 µM) | 0 | 0 | 5 | 0 | 3 | 0 | 0 | 0 | 0 | 0 | 0 | 0 | 0 | 0 | 1 | 0 | 0 | 0 | 0 | 0 |
| Cn1c(N2CCO[C@@H](c3ccc(F)cc3)C2)nc(-c2ccncn2)cc1=O (10 µM) | 0 | 0 | 0 | 0 | 0 | 0 | 0 | 0 | 0 | 0 | 0 | 0 | 0 | 0 | 0 | 0 | 0 | 0 | 0 | 0 |
| O=S(=O)(c1ccc(O)cc1O)N1Cc2cc(O)cc(O)c2C1 (10 µM) | 0 | 0 | 0 | 0 | 0 | 0 | 0 | 0 | 0 | 0 | 0 | 0 | 0 | 0 | 0 | 0 | 0 | 0 | 0 | 0 |
| N=C(NC(=N)N1CCCC1)Nc1ccc(OC(F)(F)F)cc1 (10 µM) | 0 | 0 | 0 | 0 | 0 | 0 | 0 | 0 | 0 | 0 | 0 | 0 | 0 | 0 | 0 | 0 | 0 | 0 | 0 | 0 |
| CN(C)CCn1cc2cc(NC(=O)c3cccc(C(F)(F)F)n3)c(C(C)(C)O)cc2n1 (10 µM) | 0 | 0 | 0 | 0 | 0 | 0 | 0 | 0 | 0 | 0 | 0 | 0 | 0 | 0 | 0 | 0 | 0 | 0 | 0 | 0 |

An excerpt of these results, bar-delimited:
Compound | number of time points (CSNK1A1) | number of time points (CSNK1D) | number of time points (DDR1) | number of time points (DYRK1B) | number of time points (DYRK2) | number of time points (EGFR) | number of time points (EGFR_G719S) | number of time points (EGFR_G719S_T790M) | number of time points (EGFR_L718V) | number of time points (EGFR_L858R) | number of time points (EGFR_L861Q) | number of time points (EGFR_T790M) | number of time points (EPHA2) | number of time points (ERBB3) | number of time points [1] | number of time points (ERN1) | number of time points (FGFR1) | number of time points (FGFR2) | number of time points (FGFR3) | number of time points (FGR)
CCCCC(=O)OCC(=O)[C@]1(O)Cc2c(O)c3c(c(O)c2[C@@H](O[C@H]2C[C@H](NC(=O)C(F)(F)F)[C@H](O)[C@H](C)O2)C1)C(=O)c1c(OC)cccc1C3=O [Valrubicin] (10 µM) | 0 | 0 | 0 | 0 | 1 | 0 | 0 | 0 | 0 | 0 | 0 | 0 | 0 | 0 | 0 | 0 | 0 | 1 | 0 | 0
CCOC(=O)c1c(C)[nH]c(C=C2C(=O)Nc3ccccc32)c1C (10 µM) | 0 | 0 | 0 | 0 | 0 | 0 | 0 | 0 | 0 | 0 | 0 | 0 | 0 | 0 | 0 | 0 | 0 | 0 | 0 | 0
